PubChem BioAssay AID1159578, Peter MacCallum Cancer Centre | 2015
Shown is an unselected part of about 18,000 reagents tested. Of all reagents, about 1,030 (5.7%) got an active call. 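Inactive calls also include pools with fewer than 3300 nuclei, whose migration was not assessed.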 The raw values are shown without normalisation. Further read-outs or replicates are left out here. Reagent sequences are not shown.

- Screen: 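Knock-downs that alter how fast lymphatic endothelial cells migrate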 (primary screen)
- System: human lymphatic endothelial cells
- Knock-down reagent: siRNA pool against human genes, 40 nM
- Duration: 48 h after transfection
- Detection: 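Cells stained with dye and imaged after a scratch; covered wound area and nuclei counted, duplicates averaged, migration set against mock wells and turned into a robust z-score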
- Reading the numbers: migration robust z-score: higher = faster migration into the scratch; nuclei per well: higher = more cells in the well
- Active means: 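Migration changed when robust z exceeds 2 or falls below -2 and mean nuclei number is at least 3300; otherwise not called changed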
- Meaning of the calls: active = migration changed; inactive = no migration change, or too few cells

NSMF (GeneID 26012) | migration robust z-score: -0.86; nuclei per well, duplicate mean: 5806; Call: inactive
AGER (GeneID 177) | migration robust z-score: 2.18; nuclei per well, duplicate mean: 5810; Call: active
NADK (GeneID 65220) | migration robust z-score: -1.4; nuclei per well, duplicate mean: 3882; Call: inactive
REDIC1 (GeneID 283461) | migration robust z-score: -0.58; nuclei per well, duplicate mean: 6390; Call: inactive
PROKR1 (GeneID 10887) | migration robust z-score: 0.64; nuclei per well, duplicate mean: 4123; Call: inactive
OR6N2 (GeneID 81442) | migration robust z-score: -2.16; nuclei per well, duplicate mean: 5152; Call: active
AGO4 (GeneID 192670) | migration robust z-score: -0.39; nuclei per well, duplicate mean: 5626; Call: inactive
EGFL6 (GeneID 25975) | migration robust z-score: -0.41; nuclei per well, duplicate mean: 5013; Call: inactive
ITGA4 (GeneID 3676) | migration robust z-score: -0.34; nuclei per well, duplicate mean: 6985; Call: inactive
MORC4 (GeneID 79710) | migration robust z-score: 0.6; nuclei per well, duplicate mean: 7260; Call: inactive
GNA13 (GeneID 10672) | migration robust z-score: -0.05; nuclei per well, duplicate mean: 5916; Call: inactive
LRRC19 (GeneID 64922) | migration robust z-score: -0.42; nuclei per well, duplicate mean: 6238; Call: inactive
NUP54 (GeneID 53371) | migration robust z-score: 0.38; nuclei per well, duplicate mean: 6786; Call: inactive
H2BC7 (GeneID 8343) | migration robust z-score: 0.16; nuclei per well, duplicate mean: 7077; Call: inactive
RNF121 (GeneID 55298) | migration robust z-score: 0.29; nuclei per well, duplicate mean: 5204; Call: inactive
CDK5 (GeneID 1020) | migration robust z-score: -0.39; nuclei per well, duplicate mean: 5704; Call: inactive
RUBCNL (GeneID 80183) | migration robust z-score: 0.78; nuclei per well, duplicate mean: 6233; Call: inactive
TRAM1 (GeneID 23471) | migration robust z-score: 0.22; nuclei per well, duplicate mean: 5842; Call: inactive
ARL6 (GeneID 84100) | migration robust z-score: -1.32; nuclei per well, duplicate mean: 5889; Call: inactive
WDR4 (GeneID 10785) | migration robust z-score: 0.16; nuclei per well, duplicate mean: 5880; Call: inactive
LGALSL (GeneID 29094) | migration robust z-score: 0.44; nuclei per well, duplicate mean: 5191; Call: inactive
RAB25 (GeneID 57111) | migration robust z-score: 0.46; nuclei per well, duplicate mean: 5173; Call: inactive
SSPN (GeneID 8082) | migration robust z-score: -1.46; nuclei per well, duplicate mean: 5495; Call: inactive
INTS3 (GeneID 65123) | migration robust z-score: -1.27; nuclei per well, duplicate mean: 5322; Call: inactive
BAD (GeneID 572) | migration robust z-score: 0.1; nuclei per well, duplicate mean: 5060; Call: inactive
OR2A42 (GeneID 402317) | migration robust z-score: 0.27; nuclei per well, duplicate mean: 4681; Call: inactive
SF1 (GeneID 7536) | migration robust z-score: 0.16; nuclei per well, duplicate mean: 5489; Call: inactive

2 entries from above, showing only “migration robust z-score”:
REDIC1 (GeneID 283461) = -0.58
PROKR1 (GeneID 10887) = 0.64
